Hit rate of the full screen: of about 31,000 sequences, about 1,400 (4.5%) were called active.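 Rule for the calls: active = median seed-adjusted z-score above 1 or below -1; inactive = the rest.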 The list shows a part of the results.

The experiment can be described thus: Novel Modifiers of Survival Motor Neuron (SMN) Protein: Gene Identification via Genome-wide siRNA Screen.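 Note: luminescence tracks full-length SMN protein made from the SMN2 reporter.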 The conditions noted are these: HEK293T SMN2-luciferase reporter, siRNA knockdown, 72 h; actives lie on both sides. Summed up: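 Luciferase signal, proportional to full-length SMN made from an SMN2 cDNA reporter in stable HEK293T cells, was read 72 h after siRNA reverse transfection. Values were expressed as MAD scores after non-targeting-control normalization and log10 conversion; seed analysis flagged off-targets.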
Turning to CGGCGUCUCUACUACGUCUTT against CLEC11A, the median seed-adjusted z-score is active: -1.1.
The same measure for GGACCGAAGUCAAUGGUUUTT against SMC2: inactive: -0.052; for UCCCUAUGUUCACCACCAATT against TAL1: inactive: -0.165; for GCACCACGGUCUUCACUCUTT against EDG1: inactive: -0.316.
In the case of GAAAGAUCACUGAAUUGCATT against UGT1A10 it was inactive: 0.286; in that of CAAUGAACACUACUAACCATT against IL31RA, inactive: 0.36; in that of GCCUUUACUUGGUCCUCAUTT against ZNF595, inactive: 0.102.
Regarding CCGAGGCACCUUUCAAGAATT against SULT4A1, the median seed-adjusted z-score is inactive: -0.0628.
The same measure for GAUACGGAAUUAUACAGAATT against SLCO5A1: inactive: 0.272.
The same measure for GGACUAUGAUUCAACAACATT against CBR4: inactive: -0.66; for CUUAUGAUCUGGGAUCAGATT against GZMB: inactive: -0.0378; for GGAUGUGGCGGUUUCCUACTT against SULT1A2: inactive: 0.0541.
The same measure for GAGAAUAUCUGGAACCAGUTT against BDKRB1: inactive: 0.448; for CCUUCACAGGAUCAACAGATT against ALDH1A1: inactive: -0.355.
GCACUUUGUCAAGAUGAAATT against SHROOM4: the median seed-adjusted z-score was inactive: 0.825.
Take GCAAUAAUCCUGCUAUGGATT against ACSL4: the median seed-adjusted z-score was inactive: -0.0582.
In the case of GAUUUGGUUUCGUAACUUUTT against A2BP1 it was active: 1.17; in that of GGAUUCAACUUUACAAGAATT against BTD, inactive: -0.165.
For CGAGAAUUCUUGACAGACUTT against GABRA2, the median seed-adjusted z-score is inactive: -0.272.
The same measure for CAUGAAGAACAGUCAAGUATT against RNMT: inactive: -0.281.
The same measure for CGGACUAAUUGACUUCGCATT against MED12L: inactive: -0.0903; for GGUACAACAGUGUCCUGUUTT against MFSD10: inactive: 0.0116.
The same measure for GCGUAUAAAUCAUGGUAGATT against ZNF793: inactive: 0.448.
As for GAACAUCUCUUGUGGUAUUTT against SLC22A16, the median seed-adjusted z-score was inactive: 0.0878.
In the case of GCCCUUUGAUUGCGAGGAATT against ZNF275 it was inactive: 0.315; in that of GCAGCCUUGUCACUUAUGATT against DCTN2, inactive: 0.339; in that of GUUCAGUUGCAAAAAGAAATT against NOVA1, inactive: -0.486.
The same measure for GGUGAACCGUCAGACAGUATT against BAP1: inactive: -0.374; for CAAUUCUUAUUGACUCAUATT against IFNA1: inactive: -0.625; for GGCUGUGGUAGAUAUCUAUTT against TADA2L: inactive: 0.0455.
On to GGUAGAGACUAUCCCAACATT against UPP1, for which the median seed-adjusted z-score was inactive: -0.135.
For the sequence CGAGGUUUUGAUAAAGAUATT against EFCAB1, the median seed-adjusted z-score was inactive: -0.719.
Consider GGAGAUUCAUUCUAACCAUTT against ADAMTS19, for which the median seed-adjusted z-score was inactive: -0.39.
In the case of GAAGACACCUUCAAACUCATT against KCNIP3 it was inactive: 0.283; in that of CAUUAAACCCGACAACUUCTT against KALRN, inactive: 0.305; in that of GGAUCACAAAUAGAAUUCATT against C4BPA, inactive: 0.309.
The same measure for CCCAGAGCUUCAAAGUGUATT against HSD17B1: inactive: -0.569; for GACUGUGAGACUUACCAUATT against MED20: active: -1.66; for GCCUUGAUCAUCAUGCUAATT against LIN28B: inactive: 0.407.
In the case of GGUUCGAGGUAAACCCUAATT against CTPS2 it was active: 1.08.
With GGCCGACUGUGAUAAGAUATT against ZNF438, the median seed-adjusted z-score was inactive: 0.165.
Consider GCAUAUUUGUGCUAGUGAUTT against ARL6, for which the median seed-adjusted z-score is inactive: 0.442.
GUACUGUCAGAAAACCGAATT against DOCK9: the median seed-adjusted z-score is inactive: 0.61.
In the case of GGACAGAAAUCCUAGAUUATT against RND1 it was inactive: -0.393.
In the case of GGUGCUAUAUGUUCCGCAUTT against MLL4 it was inactive: -0.259.
As to AGUUCAUGAUUACAAAGAATT against RABL3, the median seed-adjusted z-score was inactive: 0.843.
The same measure for CUAAAAAUCUCGAAAACCATT against ZDHHC2: inactive: 0.133; for CAGAAGGAGUGGAAAGAGATT against NMNAT1: inactive: 0.22.
In the case of GUGGAUCCACGAUACCUCGTT against TIMM23 it was inactive: 0.899.
In the case of AGUGAAACUUUAGACUUCATT against KCNV1 it was inactive: 0.109; in that of CGAAAGGAAACCUAACGAATT against HIVEP2, inactive: 0.294; in that of AGACAAGAGUGAUUACAAUTT against TLE2, inactive: 0.00566.
Consider GCAAUCACAUUUAUGCAUATT against CASP6, for which the median seed-adjusted z-score is inactive: 0.765.
With CAACUAUCCCGAUAUGGAATT against KLF12, the median seed-adjusted z-score is inactive: -0.0892.
Take GAAUCCUGUGGACACCUAUTT against TNXB: the median seed-adjusted z-score is inactive: -0.0996.
The same measure for GGAGGGUCUUCAUCGCUGATT against POLR2C: active: -2.95; for CUGUUACAUUUGAUUGGAATT against GFM2: inactive: 0.26; for GGAUCAACUUGAACGAAUATT against PFTK1: inactive: 0.088.
In the case of CUUCAUGCCUAAAUACCUATT against SLCO1A2 it was inactive: -0.2; in that of ACAUUGAAGUGAAGGGUUATT against BTN3A3, inactive: 0.886; in that of CGACAUCAACAUGAACGAUTT against PCSK2, inactive: -0.704.
In the case of GCUGUUGAGUGGAACAAGATT against BZW2 it was inactive: 0.0649; in that of CUCUCUCUGCAACACCUUUTT against SLC39A3, inactive: 0.0298; in that of GCCGAGCUGUGAAGAAUGUTT against PAPLN, inactive: -0.186.
Take GGAUAUUGCUGUGGACGCATT against CREBBP: the median seed-adjusted z-score was inactive: 0.
The same measure for CGAAAGCUGCAGACCACCATT against GPR88: inactive: 0.404; for GGUUACUUUCCGCACCAGATT against UBE2E3: inactive: -0.0585; for GGUCUGUUGUUUUCCGAAATT against ATP6AP2: inactive: -0.705.

Source of the values: PubChem BioAssay AID1347426 (Functional Genomics Laboratory (NCATS/FGL), 2020).
